In PubChem BioAssay AID2685 (National Center for Advancing Translational Sciences (NCATS), 2010):
The other results are listed elsewhere or left out. These are further read-outs of the screen, such as a control signal, another cell line or another target. No call is given for them. The list favours compounds with an active or inconclusive main result. Words in brackets tell the shape of the fitted curve; partial curves, single points and poor fits give uncertain potencies.

Assay: qHTS Assay for Lipid Storage Modulators in Drosophila S3 Cells;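 for cell number change: cells counted by Cell Tracker Red CMTPX staining in the red channel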
Settings: BODIPY lipid droplet fluorescence, 18-24 h; for cell number change: measured here: cell count max response, cells fed with added oleic acid
Procedure, shortened: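 Drosophila S3 cells loaded with oleic acid (400 uM, as added) and compounds at several concentrations; lipid droplets imaged by 488-nm laser-scanning cytometry, 500–530 nm intensity and object ratio to cell channel. Percent activity normalized to 20 uM Triacsin C.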

[1] = measured here: lipid fluorescence (Fed channel) AC50, cells fed with added oleic acid
[2] = measured here: cell number channel AC50, cells fed with added oleic acid

SMILES: Cc1cc(OCC(=O)NCC(C)C)cc(C)c1Br
- cell number change: -28.7%
- AC50 [1]: 25.9 µM [falling, single point]

SMILES: COc1ccc(C(=O)COC(=O)CCC(=O)c2cccs2)cc1
- cell number change: -12.2%
- AC50 [1]: 0.58 µM [falling, single point]

SMILES: C=CCOc1ccc(C2C(C#N)=C(N)N(N(C)C)C3=C2C(=O)CCC3)cc1 (stereo not drawn)
- cell number change: 33.3%
- AC50 [2]: 11.6 µM [rising, partial curve]

SMILES: CN(Cc1ccccc1)C(=O)c1ncn(Cc2ccccc2)c1C(=O)N(C)Cc1ccccc1
- cell number change: 14.4%
- AC50 [1]: 0.103 µM [falling, partial curve, poor fit]

SMILES: CCOCCn1c2ccccc2c2nc3ccccc3nc21
- cell number change: -24.8%
- AC50 [1]: 18.4 µM [falling, single point]

SMILES: CCC(c1nnnn1Cc1ccco1)N(Cc1cc2cc(OC)ccc2[nH]c1=O)C1CCCCC1 (stereo not drawn)
- cell number change: 8.33%
- AC50 [1]: 6.51 µM [rising, single point]

SMILES: COc1ccc(C(=O)Nc2ccc(NC(=O)c3cccc(F)c3)cn2)cc1
- cell number change: 0.855%
- AC50 [1]: 0.13 µM [falling, full curve, poor fit]

SMILES: CC(C)(C)NC(=O)C(c1ccccc1)N(C(=O)CNC(=O)c1cccs1)c1cccnc1 (stereo not drawn)
- AC50 [2]: 0.731 µM [falling, single point]

SMILES: CN(C)c1nc(SCC(=O)Nc2ccc(Cl)c(Cl)c2)nc(N2CCOCC2)n1
- cell number change: 2.61%
- AC50 [1]: 11.6 µM [falling, single point]

SMILES: O=C(CSc1nc2c(c(=O)[nH]1)CCC2)Nc1cccc(F)c1
- cell number change: 0.87%
- AC50 [1]: 6.51 µM [falling, single point]

SMILES: Cc1cccc(N2CCN(C(=O)CSCc3c(C)noc3C)CC2)c1C
- cell number change: -2.76%

SMILES: COc1cc(OC)cc(-c2nnc(NC(=O)CCS(=O)(=O)c3ccc(C)cc3)o2)c1
- cell number change: -5.72%
- AC50 [2]: 0.00461 µM [falling, full curve, poor fit]
- AC50 [1]: 0.0058 µM [falling, full curve, poor fit]

SMILES: O=C(COc1ccc(S(=O)(=O)N2CCCC2)cc1)NCc1ccccn1
- cell number change: 1.9%

SMILES: Cc1ccc(NC(=O)c2ccc(C(=O)c3ccccc3)cc2)nc1
- cell number change: -51.6%
- AC50 [2]: 23.1 µM [falling, single point]
- AC50 [1]: 23.1 µM [falling, single point]

SMILES: O=C(COC(=O)c1ccc(S(=O)(=O)N2CCCC2)cc1)Nc1ccc(F)cc1F
- cell number change: -36.3%
- AC50 [2]: 18.4 µM [falling, single point]

SMILES: CSc1ccc(Cn2nnc(C(=O)NCCc3ccc(Cl)cc3)c2N)cc1
- AC50 [1]: 1.84 µM [falling, partial curve]

SMILES: CCCN(CC(=O)Nc1cccc(S(N)(=O)=O)c1)CC(=O)Nc1ccc(F)c(F)c1F
- cell number change: 6.78%
- AC50 [2]: 1.64 µM [rising, partial curve]
- AC50 [1]: 29.1 µM [rising, single point]
